The list shows a part of the results.

The target in this assay is T1, OsSMF1 (Oryza sativa, UniProt Q6ZLB0 1-436).
T1 sequence: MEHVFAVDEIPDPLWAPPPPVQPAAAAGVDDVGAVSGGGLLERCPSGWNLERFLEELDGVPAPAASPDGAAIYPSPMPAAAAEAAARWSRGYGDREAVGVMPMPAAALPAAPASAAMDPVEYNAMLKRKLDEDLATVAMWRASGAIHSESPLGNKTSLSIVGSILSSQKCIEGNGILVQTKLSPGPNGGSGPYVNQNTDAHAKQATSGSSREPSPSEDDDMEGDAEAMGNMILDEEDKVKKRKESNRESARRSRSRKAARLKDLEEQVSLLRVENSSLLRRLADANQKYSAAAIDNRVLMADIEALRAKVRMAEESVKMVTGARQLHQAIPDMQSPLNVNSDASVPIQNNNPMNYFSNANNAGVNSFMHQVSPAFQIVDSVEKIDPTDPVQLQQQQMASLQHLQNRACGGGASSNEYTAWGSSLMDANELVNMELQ
As to the kind of experiment: protein-binding microarray (RPBM); PBS, 2% BSA, 51.3 ng/ul salmon testes DNA, 50 uM zinc acetate, 200 nM TF, 25 C, 1 h; high values mean tight binding. The note with it: protein: recombinant; tags: N-terminal polyhistidine and DsRed monomer fusion (pET32a); chain copies: 2; label: CyDye5-dUTP incorporated in the synthesized complementary strand; 3' TTTTT single-stranded linker to array surface; dsDNA, one strand shown. In a few lines:
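The binding signal is fluorescence intensity per feature, in arbitrary units, read on an Axon 4000B scanner. Polyhistidine- and DsRed-tagged transcription factors (N-terminal fusions) from E. coli BL21-CodonPlus were purified on Ni–NTA and applied at 200 nM for 1 h at 25 °C to a double-stranded, BSA-blocked custom Agilent array in buffer with 50 µM zinc acetate.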
For “GCCGCCCCGATCTCTTCCCTCCGGCGGCCGCCATGTCATCCGGAGTCACCTAGTGCAG”, the binding signal was 6840 fluorescence intensity (a.u.).

As to “CGTCCCAACCGGTAGTCCAGTTGACAGTTGGCACCCGATGCGGAGTCACCTAGTGCAG”, the binding signal was 3940 fluorescence intensity (a.u.).

“AGCGGGTTAACATAGGATCCTGCGGCTGGACACGTGGCGGCGGAGTCACCTAGTGCAG”: the binding signal was 27800 fluorescence intensity (a.u.).

For “AATCTCACCCATCCACGTGTCCCCAGATCTCATCCCCATCCGGAGTCACCTAGTGCAG”, the binding signal was 18700 fluorescence intensity (a.u.).

As to “CCGTCCTCCTGCCACTGTGGTGGCTCGGTGCTGACGTGGCCGGAGTCACCTAGTGCAG”, the binding signal was 35600 fluorescence intensity (a.u.).

As to “CGTTGAATAAAAGCTTTGGAACCACACGTCCGACGCACGCCGGAGTCACCTAGTGCAG”, the binding signal is 3540 fluorescence intensity (a.u.).

As for “CTATGGGCTTCATTGTCGCGTAGAGTGGTGACTGGTCTTCCGGAGTCACCTAGTGCAG”, the binding signal is 3970 fluorescence intensity (a.u.).

For the sequence “CAATTACCTTCTCCCCACCGCGGAGGGATTCACGTCATCGCGGAGTCACCTAGTGCAG”, the binding signal is 4240 fluorescence intensity (a.u.).

As to “AAGGCCCTAAACCTATTCAGGCTCTGTACACGTGGCGGCCCGGAGTCACCTAGTGCAG”, the binding signal was 7350 fluorescence intensity (a.u.).

In the case of “GCCTCCATAATGAATGTGGTGCCATGGTTCTTTACAGATACGGAGTCACCTAGTGCAG”, the binding signal is 4140 fluorescence intensity (a.u.).

As for “TTCGTTGGAGCTACAGCTACAGCTAGTCAGCTACCACGAACGGAGTCACCTAGTGCAG”, the binding signal was 5130 fluorescence intensity (a.u.).

Regarding “ATGTTTTATTTCCTCATCATACTTTCCTTTTAAGTTCGTGCGGAGTCACCTAGTGCAG”, the binding signal is 3660 fluorescence intensity (a.u.).

In the case of “GGAGTGGCGGGGTTGCGGCATTGGGAGCTGACGTGGCCGCCGGAGTCACCTAGTGCAG”, the binding signal was 25400 fluorescence intensity (a.u.).

With “TCACAAGGCTCTCTGGAGCATTTGTGGCACACGTCTTGATCGGAGTCACCTAGTGCAG”, the binding signal was 3170 fluorescence intensity (a.u.).

“CCCCGCCCCGCCGGACCGCGCCCGCGCTGCCGCCGTGGCGCGGAGTCACCTAGTGCAG”: the binding signal was 5220 fluorescence intensity (a.u.).

Take “AGAACGTTGCCACGTGCCCACGTCAGCCAGAGTGCGTGTGCGGAGTCACCTAGTGCAG”: the binding signal is 17000 fluorescence intensity (a.u.).

Consider “AGCTTAAGATGAACTAAGGCTCACACGTGGATACCTTGGGCGGAGTCACCTAGTGCAG”, for which the binding signal is 10300 fluorescence intensity (a.u.).

For “AACTAGCGGATTTATAAAGTGACTATGGGTGTGTTTAGTTCGGAGTCACCTAGTGCAG”, the binding signal is 3510 fluorescence intensity (a.u.).

For “ATAGATTTCCGCCCAAAACCATCCACCTTTTGCCGCCTCCCGGAGTCACCTAGTGCAG”, the binding signal is 13500 fluorescence intensity (a.u.).

As for “CTTCTGATCCGTTTGTGTCAGAGCCAAATCTTCTTCTTCTCGGAGTCACCTAGTGCAG”, the binding signal is 3600 fluorescence intensity (a.u.).

Take “ATTTATATTCAGAGGAAGCTTATGCAGTTCTTTATCCTCCCGGAGTCACCTAGTGCAG”: the binding signal was 26700 fluorescence intensity (a.u.).

Take “GTTCCGGGCCAGCCCAACCAACGCGGGCCCCACGTCATTCCGGAGTCACCTAGTGCAG”: the binding signal was 13900 fluorescence intensity (a.u.).

For “ATTCGTTATACTAGGTGACATCTCATCTAATATTTGTTTACGGAGTCACCTAGTGCAG”, the binding signal is 4270 fluorescence intensity (a.u.).

Consider “GCCTTCTTCCTCGCCTGCGGCCGTCTCCGCCACCTCGACCCGGAGTCACCTAGTGCAG”, for which the binding signal was 4040 fluorescence intensity (a.u.).

Turning to “ATTCAAACACCACCATTCTGACACCGCGACGTGATCCCAGCGGAGTCACCTAGTGCAG”, the binding signal is 5870 fluorescence intensity (a.u.).

For “CCGTCCTCCGGCCGCGGCGCGCGCCGGCAGCCGCGGCCGCCGGAGTCACCTAGTGCAG”, the binding signal was 4140 fluorescence intensity (a.u.).

“GCCCACCCTCCCTCCACGTGTCGCGCCTCCGACCGTCCGACGGAGTCACCTAGTGCAG”: the binding signal was 14000 fluorescence intensity (a.u.).

Take “CCTTGACAGTGCACACGCCAAAACCACCGCTAACTCCCACCGGAGTCACCTAGTGCAG”: the binding signal was 21000 fluorescence intensity (a.u.).

On to “CTCCGCGGGACGCGTGTCTCCGCTCCCACGCCGCTGTCTACGGAGTCACCTAGTGCAG”, for which the binding signal is 4460 fluorescence intensity (a.u.).

With “GTACCAAATGAAAGTGAAACAAATGAAACAAAAGAAGATGCGGAGTCACCTAGTGCAG”, the binding signal is 3960 fluorescence intensity (a.u.).

With “ATTACATGATAAAACATAAATAGTACTTTATGCGTCATAGCGGAGTCACCTAGTGCAG”, the binding signal was 5140 fluorescence intensity (a.u.).

With “GTCGAAACAAATGGTAAGGGCAAAAGTGTCAAACCACCTACGGAGTCACCTAGTGCAG”, the binding signal is 4060 fluorescence intensity (a.u.).

As to “GTGAACAAATCAGCTTGTGTTGTTTATCACCAAGTCATTGCGGAGTCACCTAGTGCAG”, the binding signal was 20200 fluorescence intensity (a.u.).

In the case of “CACGAAAACTGAACTCCCTGCCACGGCCACCGTGTCAGCACGGAGTCACCTAGTGCAG”, the binding signal is 5570 fluorescence intensity (a.u.).

With “GCACTTCAGCTTTTCTGATCTACTCACCATCATCATCAGCCGGAGTCACCTAGTGCAG”, the binding signal was 4130 fluorescence intensity (a.u.).

On to “GCCGAGAACGTAGTGCCGCGTGTAGATGACGCCCGTGGCCCGGAGTCACCTAGTGCAG”, for which the binding signal is 5490 fluorescence intensity (a.u.).

As for “GAAAGGAAAGAGAGAGGAAGCTGACGTGGCCACGCTGACACGGAGTCACCTAGTGCAG”, the binding signal was 16000 fluorescence intensity (a.u.).

Take “AGCGTCTTGCTATGTCCACCTCACGTACAGACAACACGATCGGAGTCACCTAGTGCAG”: the binding signal was 5640 fluorescence intensity (a.u.).

On to “GCTTGATATCGTACTACGTGGACCCTCATTCCAACGTACCCGGAGTCACCTAGTGCAG”, for which the binding signal was 3360 fluorescence intensity (a.u.).

In the case of “CTCCGGCTGATCTCGACGGCGCACGTCAGTCAGCGTATCTCGGAGTCACCTAGTGCAG”, the binding signal was 4250 fluorescence intensity (a.u.).

In the case of “GCGTCCATGGCCGCCGCCTCGTCCGCCGCGCGCCAGGCGGCGGAGTCACCTAGTGCAG”, the binding signal is 3850 fluorescence intensity (a.u.).

In the case of “TATGTGTGCTGTTAGCTGTGGACCTGACTTGGCCTGGTAACGGAGTCACCTAGTGCAG”, the binding signal is 3140 fluorescence intensity (a.u.).

Values taken from article PMC7819943, “Rice protein-binding microarrays: a tool to detect cis-acting elements near promoter regions in rice”.
